According to PMC7788135:
No constants are given. Whether binding was seen depends on the method and setting.

Target: BK–OsMS188∆C (rice (Oryza sativa L.))
Experiment: two-hybrid; Clontech two-hybrid system, yeast AH109; OsMS188 in pGBKT7 (BD), partners in pGADT7 (AD); growth on SD/-Ade/-His/-Trp/-Leu/X-a-Gal media

B1: GAMYB (protein, UniProt Q0JIC2 1-553)
chain: MYRVKSESDCDMIHQEQMDSPVADDGSSGGSPHRGGGPPLKKGPWTSAEDAILVDYVKKHGEGNWNAVQKNTGLFRCGKSCRLRWANHLRPNLKKGAFTAEEERLIIQLHSKMGNKWARMAAHLPGRTDNEIKNYWNTRIKRCQRAGLPIYPTSVCNQSSNEDQQCSSDFDCGENLSNDLLNANGLYLPDFTCDNFIANSEALPYAPHLSAVSISNLLGQSFASKSCSFMDQVNQTGMLKQSDGVLPGLSDTINGVISSVDQFSNDSEKLKQAVGFDYLHEANSTSKIIAPFGGALNGSHAFLNGNFSASRPTSGPLKMELPSLQDTESDPNSWLKYTVAPALQPTELVDPYLQSPAATPSVKSECASPRNSGLLEELIHEAQTLRSGKNQQTSVISSSSSVGTPCNTTVLSPEFDMCQEYWEEQHPGPFLNDCAPFSGNSFTESTPPVSAASPDIFQLSKVSPAQSTSMGSGEQVMGPKYEPGDTSPHPENFRPDALFSGNTADPSVFNNAIAMLLGNDLSIDCRPVLGDGIMFNSSSWSNMPHACEMSEFK
binding: no binding
